The test relates to L1210 leukemia ip in BDF1 mice, survival T/C. Nature of the test: NCI In Vivo Anticancer Drug Screen. Data for tumor model L1210 Leukemia (intraperitoneal) in B6D2F1 (BDF1) mice. As to conditions: T/C endpoint: mean survival time, higher T/C = longer survival.
Setting [1] is: dose: 400.0 mg/kg/injection, schedule: Q01DX009 (ip), vehicle: saline.

The source of these data is PubChem BioAssay AID248 (DTP/NCI, 2004).

The list is a part of this screen's results and no random one: it gathers tests that were run many times, whatever their T/C, doses with no T/C, and many T/C values between a quarter and a half above the control. Other doses and runs of a compound stand elsewhere. T/C gives the treated animals as a percentage of the vehicle group. Some doses have a count of surviving animals in place of a T/C: the source files T/C as zero there, which appears to mark a toxic dose or a test without result, not a measured value. Some doses without a T/C left all or most animals alive at the check, yet need not have been tolerated: the source hardly ever lists a survival T/C far under the control, and the zero likely stands for such cases as well. Counts of survivors are from the toxicity check (mostly the fifth day) where no day follows; animals may have died later. Schedules are NCI's codes, read here as Q, the interval in days (D) or hours (H), X, the number of doses. Where survival is the endpoint, the PubChem record calls one and a half times the control and up active, and a quarter to a half above the control has no call in these data; cut-offs in other NCI protocols can differ.

In the case of `O=NN(CCCl)C(=O)Nc1ccc2c(c1)OCO2`, the T/C was 144 % of control (dose: 1.5 mg/kg/injection, schedule: Q01DX009 (ip), vehicle: other); 144 % of control (dose: 2.5 mg/kg/injection, schedule: Q01DX009 (ip), vehicle: other); 139 % of control (dose: 13.0 mg/kg/injection, schedule: Q01DX001 (ip), vehicle: other); 129 % of control (dose: 14.0 mg/kg/injection, schedule: Q01DX009 (ip), vehicle: carboxymethylcellulose (CMC)); 138 % of control (dose: 33.0 mg/kg/injection, schedule: Q01DX009 (ip), vehicle: carboxymethylcellulose (CMC)); 141 % of control (dose: 44.0 mg/kg/injection, schedule: Q01DX001 (ip), vehicle: other). The T/C is, setting by setting: (dose: 50.0 mg/kg/injection, schedule: Q01DX009 (ip), vehicle: carboxymethylcellulose (CMC)) 142 % of control; (dose: 133.0 mg/kg/injection, schedule: Q01DX001 (ip), vehicle: saline) 142 % of control; (dose: 200.0 mg/kg/injection, schedule: Q01DX001 (ip), vehicle: carboxymethylcellulose (CMC)) 147 % of control; (dose: 300.0 mg/kg/injection, schedule: Q01DX001 (ip), vehicle: carboxymethylcellulose (CMC)) 143 % of control; (dose: 400.0 mg/kg/injection, schedule: Q01DX001 (ip), vehicle: carboxymethylcellulose (CMC)) 133 % of control. Further, the survivor count by setting is: (dose: 58.0 mg/kg/injection, schedule: Q01DX015 (ip), vehicle: saline) 6 of 6; (dose: 66.0 mg/kg/injection, schedule: Q01DX009 (ip), vehicle: other) 6 of 6; (dose: 88.0 mg/kg/injection, schedule: Q01DX015 (ip), vehicle: saline) 6 of 6; (dose: 100.0 mg/kg/injection, schedule: Q01DX009 (ip), vehicle: other) 3 of 6; (dose: 133.0 mg/kg/injection, schedule: Q01DX015 (ip), vehicle: carboxymethylcellulose (CMC)) 5 of 6; (dose: 200.0 mg/kg/injection, schedule: Q01DX015 (ip), vehicle: carboxymethylcellulose (CMC)) 0 of 6.

In the case of `CC[N+](CC)(CCOc1ccc(C(C)(C)CC(C)(C)C)cc1)Cc1ccccc1`, the survivor count reads like this: (dose: 2.5 mg/kg/injection, schedule: Q01DX009 (ip), vehicle: saline with Tween-80) 3 of 6; (dose: 5.0 mg/kg/injection, schedule: Q01DX009 (ip), vehicle: saline with Tween-80) 4 of 6.

`CC1B(O)Nc2nc(=S)[nH]c(N)c21` (stereo unspecified): the survivor count (dose: 400.0 mg/kg/injection, schedule: Q04DX003 (ip), vehicle: saline sonified) is reported as 0 of 6.

As to `CCN(CC)CCN(C)C`, under setting [1], the survivor count is listed as 0 of 6.

As to `C[n+]1ccc(/C=C/c2ccnc3c(O)cccc23)c2ccccc21`, the survivor count is, setting by setting: (dose: 30.0 mg/kg/injection, schedule: Q01DX001 (ip), vehicle: saline) 0 of 6; (dose: 60.0 mg/kg/injection, schedule: Q01DX001 (ip), vehicle: saline) 0 of 6.

With `Cc1cccnc1NC(=O)NCCCl`, the survivor count (dose: 400.0 mg/kg/injection, schedule: Q01DX009 (ip), vehicle: Klucel (hydroxypropylcellulose) (HPC)) is 2 of 6.

`CCCCC(=O)N1CCCC(C)C1` (stereo unspecified): the survivor count (dose: 200.0 mg/kg/injection, schedule: Q04DX002 (ip), vehicle: Klucel (hydroxypropylcellulose) (HPC)) is recorded as 3 of 3 and the survivor count (dose: 400.0 mg/kg/injection, schedule: Q04DX002 (ip), vehicle: Klucel (hydroxypropylcellulose) (HPC)) was 1 of 3.

Regarding `CN(C)c1ccc(-c2nc3nc[nH]c(=O)c3[nH]2)cc1`, the survivor count is on record as 0 of 4 (dose: 100.0 mg/kg/injection, schedule: Q01DX001 (ip), vehicle: saline); 0 of 4 (dose: 200.0 mg/kg/injection, schedule: Q01DX001 (ip), vehicle: saline); 0 of 4 (dose: 400.0 mg/kg/injection, schedule: Q01DX001 (ip), vehicle: saline).

Consider `CN(C)CCN(C)CCN(C)CCN(C)C`, for which the survivor count under setting [1] is given as 4 of 6.

In the case of `COc1cc(CCl)c(OC)cc1Cl`, the survivor count (dose: 400.0 mg/kg/injection, schedule: Q01DX009 (ip), vehicle: saline with Tween-80) is 5 of 6.

`O=C(COc1ccc(Cl)cc1)Nc1cccnc1`: the survivor count runs as follows: (dose: 100.0 mg/kg/injection, schedule: Q01DX009 (ip), vehicle: Klucel (hydroxypropylcellulose) (HPC)) 2 of 6; (dose: 100.0 mg/kg/injection, schedule: Q04DX003 (ip), vehicle: Klucel (hydroxypropylcellulose) (HPC)) 3 of 6; (dose: 200.0 mg/kg/injection, schedule: Q04DX003 (ip), vehicle: Klucel (hydroxypropylcellulose) (HPC)) 2 of 6; (dose: 400.0 mg/kg/injection, schedule: Q04DX003 (ip), vehicle: Klucel (hydroxypropylcellulose) (HPC)) 0 of 6.

For `O=C(c1ccc([N+](=O)[O-])cc1)N1CC1Cc1ccccc1` (stereo unspecified), for the setting “dose: 400.0 mg/kg/injection, schedule: Q01DX001 (ip), vehicle: Klucel (hydroxypropylcellulose) (HPC)”, the survivor count is recorded as 1 of 6.
